Reference: PubChem BioAssay AID662 (National Center for Advancing Translational Sciences (NCATS), 2007)
Values joined by “and” are separate entries in the source; they are usually repeats but may differ in a detail not shown here. Equal entries are not always repeated. The list shows a part of the results. The main result of the screen is listed elsewhere. These columns were measured beside it and carry no call. The list favours compounds with an active or inconclusive main result. Potencies come from curve fits of mixed quality, noted in brackets.

Experiment: Cell signaling CRE-BLA (Fsk stim)
Details: CHO CRE-bla reporter (cAMP response element driving beta-lactamase), forskolin EC10, beta-lactamase ratio; measured here: 460 nm blue channel
Summary of the method: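 CRE-bla CHO cells stimulated with EC10 NKH 477 (water-soluble forskolin) and compound titrations, 3 h at 37C; beta-lactamase read with CCF4 after 2 h at room temperature. Activity from 460/530 nm emission ratio, AC50 values for positive or negative modulation.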

SMILES | AC50
CN(C)c1ccc(-c2ccc3ncnc(N4CCNCC4)c3c2)cc1 | 10 µM [rising, partial curve]
CCC1CCCCN1CC(=O)Nc1cc(C)nn1-c1nc(C)cc(C)n1 (stereo unspecified) | 5.01 µM [rising, partial curve]
COc1cc2c(cc1OC)C(=O)Cc1ccc3c(c1CN(C)CC2)OCO3 | 31.6 µM [falling, single point]
COc1ccccc1C1C(C(=O)NCc2ccccc2)=C(C)Nc2ncnn21 (stereo unspecified) | 3.16 µM [falling, partial curve]
CCOC(=O)c1cnc(-n2cc(C)cn2)nc1NCc1ccc2c(c1)OCO2 | 1.58 µM [rising, full curve, poor fit]
CCCN1CCN(C(=O)Cn2cccc2C(=O)c2ccccc2)CC1 | 0.0794 µM [falling, full curve, poor fit]
COCCNc1ccnc(-c2cccc(NS(C)(=O)=O)c2)n1 | 5.01 µM [falling, single point]
COc1cccc(OC(=O)CSc2nnc(-c3ccccc3Br)o2)c1 | 3.98 µM [rising, single point]
Cc1cccc(CNc2ncnc3ccc(-c4cccc(NS(C)(=O)=O)c4)cc23)c1 | 2.51 µM [rising, partial curve]
C=CCOC(=O)C(C#N)c1nc2ccccc2nc1N1CCN(Cc2ccc3c(c2)OCO3)CC1 (stereo unspecified) | 10 µM [rising, partial curve]
C(=N\c1nccs1)/Nc1nccs1 | 5.01 µM [falling, single point]
Nc1ccc(C(=O)OCCCc2nc3ccccc3[nH]2)cc1 | 12.6 µM [rising, single point]
CCCCCCCCCCCCCCCCCC(=O)NC[C@@H](COP(=O)([O-])OCC[N+](C)(C)C)OCC | 20 µM [falling, partial curve]
COc1ccc(-c2nnc(SCC(=O)OC3CCCCC3)o2)cc1OC | 12.6 µM [rising, single point]
Cc1ccc(C(=O)Nc2ccccc2C(=O)NC2CCCCC2)cc1S(=O)(=O)N1CCOCC1 | 1.58 µM [rising, partial curve]
COC(=O)[C@@]1(Cc2ccc(F)cc2)[C@H]2c3cc(C(=O)N(C)C)n(CCN4CCOCC4)c3C[C@H]2CN1C(=O)c1ccccc1 | 15.8 µM [rising, partial curve]
CN(C(=O)c1ccc2c(=O)n3c(nc2c1)CCCCC3)c1ccccc1 | 10 µM [rising, partial curve]
c1ccc(-c2nnnn2CCOCCn2nnnc2-c2ccccc2)cc1 | 5.01 µM [falling, single point]
Cc1cc(=O)c2c(O)c(O)ccc2o1 | 25.1 µM [rising, partial curve]
COc1ccccc1CNc1ccnc(-c2cccc(C#N)c2)n1 | 7.94 µM [rising, partial curve]
CCOC(=O)c1c(NC(=O)CSc2nnc(Cc3csc(N)n3)n2C)sc(C)c1C | 12.6 µM [rising, single point]
c1csc(-c2csc3nc(CN4CCOCC4)nc(NCc4ccc5c(c4)OCO5)c23)c1 | 25.1 µM [rising, single point]

Reformatted with tabs: entries from further up
SMILES	AC50
Cc1cc(=O)c2c(O)c(O)ccc2o1	25.1 µM [rising, partial curve]
COc1ccccc1CNc1ccnc(-c2cccc(C#N)c2)n1	7.94 µM [rising, partial curve]

Additional results follow.

SMILES | AC50
COc1cc(-c2nc(-c3ccccn3)no2)cc(OC)c1OC | 1.58 µM [rising, partial curve]
Cc1cccc2nc(CSc3nncn3-c3ccccc3)cn12 | 10 µM [rising, partial curve]
CC(C)Cc1nnc(NC(=O)CCN2C(=O)c3ccccc3C2=O)s1 | 10 µM [rising, partial curve]
O=C(c1ccc(Cl)cc1)N1CCN(C(=O)c2ccco2)CC1 | 5.01 µM [rising, single point]
COc1c(O)cc2oc3cc(O)c(CC=C(C)C)c(O)c3c(=O)c2c1CC=C(C)C | 31.6 µM [falling, single point]
O=C(Nc1ccc2c(c1)OCCO2)c1ccc(Br)c(S(=O)(=O)N2CCOCC2)c1 | 1 µM [falling, partial curve, poor fit]
CCCn1c(=S)[nH]c2cc(C(=O)N3CCCC(C(=O)OCC)C3)ccc2c1=O (stereo unspecified) | 10 µM [rising, partial curve]
CCCCNC(=O)C(c1ccc(OCC(=O)OC)c(C(=O)OC)c1)N(Cc1ccccn1)C(=O)CCCCCN1C(=O)NC(c2ccc(-c3ccccc3)cc2)C(C(=O)OCc2ccccc2)=C1C (stereo unspecified) | 3.16 µM [rising, single point]
COc1cccc(Nc2cc(C)nc3nc(C)nn23)c1 | 10 µM [rising, partial curve]
CCOC(=O)C1CCCN(C(=O)c2cc(=O)c3ccccc3o2)C1 (stereo unspecified) | 5.01 µM [falling, single point]
COc1ccc2c(c1)c1nnc(SCC(=O)N3CCCCC3C)nc1n2C (stereo unspecified) | 1.26 µM [rising, full curve]
C/C(Cl)=C\Cn1c(N2CCCC2)nc2c1c(=O)[nH]c(=O)n2C | 1 µM [rising, partial curve]
CCC1Oc2ccc(C)cc2N(Cc2cccc(C)c2)C1=O (stereo unspecified) | 25.1 µM [rising, single point]
NS(=O)(=O)c1ccc(NC(=O)CCc2ccccc2)cc1 | 25.1 µM [falling, single point]
COc1cccc(-c2cc(C(=O)Nc3cc(OC)c(OC)c(OC)c3)no2)c1 | 6.31 µM [rising, partial curve, poor fit]
CCOc1cc(C)c(C(C)C)cc1S(=O)(=O)N1CCN(C)CC1 | 5.01 µM [falling, partial curve]
C=CCn1c(C)cc(C(=O)COC(=O)COc2ccccc2C#N)c1C | 0.0501 µM [falling, full curve, poor fit]
C=C1C(=O)O[C@@H]2[C@H]3O[C@]3(C)CCC=C(C)CC[C@@H]12 | 25.1 µM [falling, single point] and 12.6 µM [falling, partial curve]
CCOC(=O)c1c(C)[nH]c(C(=O)Cn2nnc(-c3ccccc3Cl)n2)c1C | 10 µM [rising, partial curve]
CCOC(=O)c1cc2c(=O)n3cccc(C)c3nc2n(Cc2ccco2)c1=NC(=O)c1cccnc1 | 12.6 µM [rising, partial curve]
CCn1cc(C(=O)N2CCN(C(=O)c3ccco3)CC2)c2cc(OC)c(OC)cc2c1=O | 10 µM [rising, partial curve]
O=c1oc2c3c(nn2c2ccccc12)CCCC3 | 15.8 µM [rising, single point]

A different layout for part of the listing above:
SMILES,AC50
Cc1ccc(C(=O)Nc2ccccc2C(=O)NC2CCCCC2)cc1S(=O)(=O)N1CCOCC1,"1.58 µM [rising, partial curve]"
O=C(Nc1ccc2c(c1)OCCO2)c1ccc(Br)c(S(=O)(=O)N2CCOCC2)c1,"1 µM [falling, partial curve, poor fit]"
CCOC(=O)C1CCCN(C(=O)c2cc(=O)c3ccccc3o2)C1 (stereo unspecified),"5.01 µM [falling, single point]"

(further entries)

SMILES | AC50
CCOc1cc(-c2conc2N)cc(OCC)c1OCC | 7.94 µM [rising, partial curve]
Cn1c(=O)c2c(nc(CN3CCC(C(N)=O)CC3)n2CCc2ccccc2)n(C)c1=O | 12.6 µM [rising, single point]
COC(=O)c1ccccc1NC(=O)c1sc(N)nc1C | 10 µM [rising, partial curve]
CC(C)Nc1nc(NC(C)C)nc(N(C)C(N)=O)n1 | 10 µM [rising, partial curve]
COCCCN(C(C)=O)c1nc(-c2ccc(OC)cc2)cs1 | 10 µM [rising, partial curve]
Clc1ccccc1-c1ccc2ncnc(NCCN3CCOCC3)c2c1 | 6.31 µM [rising, partial curve]
O=S(=O)(NCC(c1cccnc1)N1CCOCC1)c1cccs1 (stereo unspecified) | 10 µM [rising, partial curve]
CCNc1ncc2nc(-c3cc(F)cc(F)c3)c(=O)n(-c3ccc(OC)cc3)c2n1 | 1.58 µM [rising, partial curve]
Cc1nc2oc3ccccc3c(=O)c2c(=O)n1Cc1ccccc1 | 12.6 µM [rising, single point]
CC1CCN(C(=O)c2scc3c2OCCO3)CC1 | 25.1 µM [falling, single point]
OCC#CCSc1nnc(-c2ccc(Br)cc2)o1 | 25.1 µM [rising, single point]
Cc1ccnc(Nc2nc(-c3c(C)nc4sccn34)cs2)c1 | 25.1 µM [falling, single point]
CCOc1ccc2nc(NCCNC(=O)Nc3ccccc3)c(C#N)cc2c1 | 12.6 µM [rising, partial curve]
Cc1nc2cnc(Oc3cccc(Cl)c3)nc2n(CCc2ccccc2)c1=O | 12.6 µM [rising, partial curve]
CCN(CC)c1ccc2c(c1)oc(=O)c1c(Cl)cc(=O)oc12 | 10 µM [rising, partial curve]
CN(CCOc1ccc(C[C@H](Nc2ccccc2C(=O)c2ccccc2)C(=O)O)cc1)c1ccccn1 | 12.6 µM [falling, single point]
O=C(CSc1nnc(-c2ccc(Br)o2)n1Cc1ccccc1)c1ccccc1F | 15.8 µM [rising, single point]
O=C(CSc1ccc2nnc(-c3ccccc3)n2n1)NCC1CCCO1 (stereo unspecified) | 5.01 µM [rising, single point]
O=C(O)C1CCCCC1C(=O)OCCCCOC(=O)C1CCCCC1C(=O)O (stereo unspecified) | 0.631 µM [falling, full curve, poor fit]
O=C(CSc1nc2c(sc3ccccc32)c(=O)n1Cc1ccco1)NCC1CCCO1 (stereo unspecified) | 10 µM [rising, partial curve]
c1ccc(CCc2nn3c(Cn4cnc5ccccc54)nnc3s2)cc1 | 10 µM [rising, single point]
Cc1c(C#N)c(SCC(N)=O)nc2c1CCCC2 | 0.126 µM [falling, single point]
